According to PubChem BioAssay AID540275 (National Center for Advancing Translational Sciences (NCATS), 2011):
The campaign covered roughly 320,000 compounds. About 620 (0.19%) were called active. Inconclusive means that the source gave no clear call. Such entries were picked first, then a sample of the others. No stated cut-off is given here; in the data, active means activation above about 80%; inconclusive means between about 30% and that limit; inactive means weaker than that.

Amino acid sequences for entries named in this document (tags omitted).
UniProt Q8NER1, whole entry, looked up: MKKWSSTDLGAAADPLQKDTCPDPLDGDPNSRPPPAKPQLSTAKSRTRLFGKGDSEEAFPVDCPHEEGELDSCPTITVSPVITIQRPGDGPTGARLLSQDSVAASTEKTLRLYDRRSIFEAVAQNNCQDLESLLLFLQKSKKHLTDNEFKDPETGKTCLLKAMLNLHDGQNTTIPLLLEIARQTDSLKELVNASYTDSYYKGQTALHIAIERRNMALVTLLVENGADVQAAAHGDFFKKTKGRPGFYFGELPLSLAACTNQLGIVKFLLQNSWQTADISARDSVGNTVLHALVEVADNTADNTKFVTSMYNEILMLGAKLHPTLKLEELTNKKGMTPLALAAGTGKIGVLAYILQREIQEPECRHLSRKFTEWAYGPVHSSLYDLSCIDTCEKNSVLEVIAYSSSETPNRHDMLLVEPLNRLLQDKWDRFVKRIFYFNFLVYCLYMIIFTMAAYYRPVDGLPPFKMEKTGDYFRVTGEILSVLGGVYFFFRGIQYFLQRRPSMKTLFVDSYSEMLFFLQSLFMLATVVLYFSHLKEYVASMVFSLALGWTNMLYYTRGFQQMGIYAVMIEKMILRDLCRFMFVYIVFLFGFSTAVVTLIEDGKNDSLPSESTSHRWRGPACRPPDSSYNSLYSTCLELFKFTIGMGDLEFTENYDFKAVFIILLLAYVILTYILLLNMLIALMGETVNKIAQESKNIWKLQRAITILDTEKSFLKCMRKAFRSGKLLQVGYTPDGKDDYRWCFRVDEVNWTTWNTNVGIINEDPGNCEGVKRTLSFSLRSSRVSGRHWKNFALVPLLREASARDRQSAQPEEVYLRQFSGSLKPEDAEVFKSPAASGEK

molecular target: Transient receptor potential cation channel subfamily V member 1 (Homo sapiens) (UniProt Q8NER1); assay: HTS Assay for Compounds that Act as Agonists of the Vanilloid Receptor 1; settings: TRPV1-expressing cells, Fluo-8 calcium influx, agonist mode; at 8.33 µM, stronger effect = higher value; further: 0% is about no effect
Method in brief: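 TRPV1-expressing cells were cultured overnight at 35.5C and loaded with Fluo-8 calcium dye for 40 to 90 min at room temperature. After a 10 s baseline, compound was added and calcium influx was read kinetically for 3 min (ex 480/em 520 nm).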

Compound	activation
CC1CCCN(C(=O)c2ccc(COc3ccccc3Br)cc2)C1 (stereo unspecified)	inconclusive: 37.5%
O=C(c1ccco1)N1CCN(C(=O)c2ccc(-c3cccc(C(F)(F)F)c3)o2)CC1	inconclusive: 30.7%
O=C(O/N=C/c1ccc(Cl)cc1)C1CCCCC1	inconclusive: 33.8%
Cc1cc(C)c(S(=O)(=O)N2CCCC(C(=O)NC3CC3)C2)c(C)c1 (stereo unspecified)	inactive: 3.55%
O=C(COc1ccccc1-c1ccccc1)N/N=C/c1ccncc1	inconclusive: 64.3%
COC(=O)CSc1nc2sc3c(c2c(=O)n1-c1ccc(OC)cc1)CCN(C)C3	inactive: -1.01%
N#CCCN(C(=O)COC(=O)c1ccc(CNS(=O)(=O)c2ccc(F)c(Cl)c2)cc1)c1ccc(F)cc1	inactive: -6.09%
O=C(NC1CCCCC1)N(Cc1ccccc1)Cc1ccco1	inconclusive: 37.3%
COc1cccc(OC)c1OCCCN1CCC(Cc2ccccc2)CC1	inactive: 3.34%
O=C1CC[C@H](OCc2ccccc2)CCN1[C@H](CSc1ccccc1)Cc1ccccc1	inconclusive: 43.9%
COc1cccc(CNC(=O)C2CCN(S(=O)(=O)c3ccc(Br)s3)CC2)c1	inconclusive: 53.7%
CCCCn1c(SCC(=O)Nc2cccc(OC)c2)nc2ccc(N3CCOCC3)cc2c1=O	inactive: 17.9%
COc1ccc(NS(=O)(=O)c2ccc(OC)c(OC)c2)cc1OC	inactive: 0.347%
O=C(Cc1ccc(Cl)cc1)NCCS(=O)(=O)N1CCN(c2ccccc2F)CC1	inconclusive: 44.2%
CC(C)(C)SCCNC(=O)/C=C/c1ccc([N+](=O)[O-])cc1	inconclusive: 35%
C=CCNC(=O)c1csc(-c2ccccc2)n1	inconclusive: 35.7%
Cc1ccc(S(=O)(=O)CCC(=O)Nc2nc(-c3ccncc3)cs2)cc1	inactive: 0.179%
Cc1cc(SCC(=O)N/N=C/c2ccc(O)c(O)c2)nc2ccccc12	inconclusive: 62.4%
O=C(Nc1ccccn1)Nc1cccs1	inactive: -0.785%
CCc1cccc(CC)c1NC(=S)NCCc1c(C)[nH]c2ccccc12	inconclusive: 30.7%
CN(c1ccc(C(=O)NCCSCc2c(F)cccc2Cl)cc1)S(C)(=O)=O	inactive: -1.18%
O=C(NN1C(=O)c2ccccc2NC1c1ccc([N+](=O)[O-])o1)c1ccccc1 (stereo unspecified)	inactive: 3.59%
O=C(Cn1c(=O)oc2ccccc21)Nc1ccc(Cl)cc1Cl	inconclusive: 32.6%

Compound	activation
Cc1cc(N2CCCC2)nc2ccc(NC(=S)NC(C)C)cc12	inactive: -0.714%
COc1cccc(CNC(=O)CCCc2cn(C)c3ccccc23)c1	inconclusive: 76.7%
O=C(CCc1ccccc1)N1CCN(c2ccccc2F)CC1	inconclusive: 32.2%
N#Cc1c(N)nc(SCc2ccccn2)c(C#N)c1-c1cccs1	inactive: 13.3%
NC(=O)c1ccccc1N/C=C/C(=O)c1ccc(F)cc1	inactive: -3.65%
O=C(NCc1ccco1)c1ccc(-c2ccccc2Cl)o1	inconclusive: 51.7%
O=C(CSc1nnc(-c2ccc(Cl)cc2)n1-c1ccc(Cl)cc1)N/N=C/c1ccco1	inactive: -0.175%
Cc1ccc(-c2cc3c(nn2)-c2ccccc2C3=O)cc1	inconclusive: 40%
CCOc1cc(C(=O)Nc2cccnc2)cc(OCC)c1OCC	inconclusive: 47.6%
Cc1c(C(=O)/C=C/N(C)C)nnn1-c1ccc(Cl)cc1Cl	inactive: -7.59%
CCc1ccc(NC(=O)Nc2ccncc2)cc1	inconclusive: 68.3%
O=C1C=C(c2ccc(Cl)cc2)C(=O)N1Nc1ccccc1	inconclusive: 30.3%
Cc1cc(C)c2nc(N3CCC(C(=O)NCc4cccnc4)CC3)sc2c1	inconclusive: 61.8%
CCn1c(CNC(=O)COc2ccc(C(C)C)cc2)nnc1SCC(=O)Nc1cc(F)ccc1C	inactive: 0.948%
N#C/C(=C/c1ccc(N2CCCCC2)o1)C(=O)Nc1ccc2ccccc2c1	inconclusive: 63.1%
Cc1c([C@H]2[C@@H](CC#N)C2(C)C)c2ccccc2n1C	inconclusive: 30.2%
CCOC(=O)N1CCN(c2ncc(C(F)(F)F)cc2Cl)CC1	inconclusive: 42%
CSc1ccc(C2=CC(=O)C[C@H](c3ccc4c(c3)OCO4)C2)cc1	inconclusive: 30.1%
Clc1ccc(-n2cc(COCc3ccccc3)nn2)cc1	inconclusive: 69.5%
COc1cc(CNc2ccc3[nH]c(=O)[nH]c3c2)ccc1OCc1ccccc1	inconclusive: 56.6%
CN1CCSc2ccc(C(=O)Nc3ccc(Cl)cc3)cc21	inconclusive: 69.5%
CN(C)S(=O)(=O)N1CCC(n2nccc2NC(=O)CCc2ccccc2)CC1	inactive: -4.99%
O=C(NCc1ccccc1)c1onc(CSc2ccccc2)c1C(=O)NCC1CC1	inactive: 21.8%

Compound	activation
CNC(=O)c1[nH]cnc1C(=O)N[C@@H](Cc1ccccc1)C(=O)OCc1ccccc1	inconclusive: 34.5%
Cc1ccc(NC(=O)CSc2ccc(-c3ccccn3)nn2)c(C)c1	inactive: 6.35%
O=C(NCc1ncc(C(F)(F)F)cc1Cl)Nc1ccccc1	inconclusive: 63.9%
Cc1ccc(NC(=O)[C@@H](NC(=O)c2cccc(S(=O)(=O)N3CCOCC3)c2)C(C)C)cc1C	inconclusive: 36.2%
CCn1nc(CC(C)C)cc1C(=O)N1CCCC(Nc2ccc(OC)cc2)C1 (stereo unspecified)	inconclusive: 72.3%
CCCCOC(=O)c1ccc(NC(=O)c2cnccn2)cc1	inconclusive: 32%
COc1ccc(Cl)cc1NC(=O)CCc1ccccc1	inactive: -1.34%
O=S(=O)(c1cccs1)N1CN(Cc2cccs2)c2nc3ccccc3nc21	inactive: 1.01%
Cc1ccc2nc(SCC(=O)Nc3ccc(C)c([N+](=O)[O-])c3)[nH]c2c1	inconclusive: 33.6%
O=C(c1cc(COc2cccc(C(F)(F)F)c2)on1)N1CCC(c2ccccc2)CC1	inconclusive: 45.9%
CCOc1ccccc1NC(=O)CN1CCC(C(=O)c2ccc(F)cc2)CC1	inconclusive: 51.8%
CCOC(=O)c1oc2nc(CC(C)C)c3c(c2c1N)CCCC3	inconclusive: 48.8%
O=C(Nc1ccc(Br)cc1)c1cccc(N2C(=O)C3CCCCC3C2=O)c1 (stereo unspecified)	inconclusive: 56%
CCn1nnnc1-c1ccc(OC)c(S(=O)(=O)Nc2ccc(S(N)(=O)=O)cc2)c1	inactive: 0.431%
N#Cc1c(-c2ccccc2)nc(-c2ccccc2)nc1N1CCOCC1	inconclusive: 36.3%
O=C(NCc1ccc(F)cc1)c1noc2c1CCCCC2	inconclusive: 32.5%
Cc1ccc(-c2nnc3n2N=C(c2ccccc2Br)CS3)cc1	inconclusive: 44.3%
O=C(Cc1ccc(Cl)cc1)NC1CCCN(Cc2ccccc2F)C1 (stereo unspecified)	inconclusive: 35.6%
O=C(Nc1c(C(=O)NCc2ccco2)cnn1-c1ccccc1)c1cccc(F)c1	inconclusive: 39.6%
CC(Cc1cccs1)NC(=O)Nc1cccc(Cl)c1 (stereo unspecified)	inactive: -4.17%
CCn1c(=O)n(CC)c2cc(N3CCCC3)c(NC(=O)c3cc(Cl)ccc3OC)cc21	inconclusive: 36.2%
O=C(NCC1CC1)Nc1cccc(C(F)(F)F)c1	inconclusive: 47.7%
O=[N+]([O-])c1cc(Br)c(O)c(/C=N/Nc2nnnn2-c2cccc3ccccc23)c1	inactive: 3.34%

Arranged by length of the SMILES (smallest number first): part of the list above
Compound	activation
O=C(NC1CCCCC1)N(Cc1ccccc1)Cc1ccco1	inconclusive: 37.3%
O=C(COc1ccccc1-c1ccccc1)N/N=C/c1ccncc1	inconclusive: 64.3%
COc1cc(CNc2ccc3[nH]c(=O)[nH]c3c2)ccc1OCc1ccccc1	inconclusive: 56.6%
COc1cccc(CNC(=O)C2CCN(S(=O)(=O)c3ccc(Br)s3)CC2)c1	inconclusive: 53.7%
COC(=O)CSc1nc2sc3c(c2c(=O)n1-c1ccc(OC)cc1)CCN(C)C3	inactive: -1.01%

(cont.)

Compound	activation
COC(=O)c1ccccc1-c1c2ccc(=N)cc-2oc2cc(N)ccc12	active: 123%
CCC(=O)Nc1ccc2nc(C3CC3)n(Cc3ccc(C(C)(C)C)cc3)c(=O)c2c1	inconclusive: 45.4%
C/C(N)=C(/C#N)C(=O)CSc1nc2ccccc2c(=O)n1Cc1ccc(C)cc1	inconclusive: 33%
COc1ccccc1CCNC(=O)c1ccc(Br)s1	inconclusive: 59.2%
N#Cc1ccc(-c2csc(NC3=NCCCCC3)n2)cc1	inconclusive: 31.8%
O=[N+]([O-])c1ccccc1/C=N/N1CCN(c2ccccn2)CC1	inconclusive: 35.1%
Cc1ccsc1/C=N/N1CCN(c2ccccn2)CC1	inconclusive: 58.9%
COc1ccc(CNC(=O)COC(=O)CC2CC3CCC2C3)cc1OC (stereo unspecified)	inconclusive: 55.7%
COc1ccc(/C(C)=N\NC(=O)CSc2nnc(C)s2)cc1	inactive: 3.16%
CCOC(=O)CSc1nc(C(C)C)nc2sc(C)c(C)c12	inconclusive: 38%
CCCCn1nnc(NC(=O)c2cc3ccccc3o2)n1	inconclusive: 38.5%
O=C(CSCc1ccc(Cl)cc1)Nc1ccc2c(c1)OCO2	inconclusive: 30.4%
O=C(Nc1ccc(C(=O)NCc2ccc(F)cc2)cc1)C1=CSCCO1	inactive: 8.55%
O=C(CN(Cc1ccco1)C(=O)CNS(=O)(=O)c1ccc(F)cc1)NCc1ccccc1	inactive: -0.0174%
CC1CC(C)CN(S(=O)(=O)N2CCCC(C(=O)NCc3ccccc3Cl)C2)C1 (stereo unspecified)	inconclusive: 35.4%
CCCc1nc(NCc2ccncc2)c2nnn(Cc3ccccc3F)c2n1	inconclusive: 36.3%
Cc1ccc(/C=N/n2c(C)nc3ccccc3c2=O)s1	inconclusive: 69.9%
CCOC(=O)c1c(NC(=O)CN2CCCCC2)sc2c1CCN(C(=O)OCC)C2	inconclusive: 66.6%
Cc1ccnc(Nc2nc(-c3ccc(O)cc3O)cs2)c1	inactive: 2.23%
O=C(Nc1ccncc1)Nc1ccc(F)c(Cl)c1	inconclusive: 72.7%
O=C(NC12CC3CC(CC(C3)C1)C2)N1CCN(c2ncccn2)CC1	inconclusive: 66.2%
O=C(NCCc1ccccc1)c1cc(S(=O)(=O)N2CCCC2)ccc1F	inconclusive: 33.8%

2 entries from above, field by field.
CCOC(=O)CSc1nc(C(C)C)nc2sc(C)c(C)c12
  activation: inconclusive: 38%
CCCCn1nnc(NC(=O)c2cc3ccccc3o2)n1
  activation: inconclusive: 38.5%
